Measurements published in paper doi:10.1101/2022.08.19.504532 (bioRxiv, 2022).
No constants are given. Whether binding was seen depends on the method and setting.

Amino acid sequences for entries named in this document (tags omitted). A change or cut given only in a name is not applied to a line headed by its entry. Chains listed by the source or under a name are the forms on record and can include a tag or linker.
3xFLAG-BIRC6 double mutant (BIRmut/ΔHelix) (Q9NR09, form named): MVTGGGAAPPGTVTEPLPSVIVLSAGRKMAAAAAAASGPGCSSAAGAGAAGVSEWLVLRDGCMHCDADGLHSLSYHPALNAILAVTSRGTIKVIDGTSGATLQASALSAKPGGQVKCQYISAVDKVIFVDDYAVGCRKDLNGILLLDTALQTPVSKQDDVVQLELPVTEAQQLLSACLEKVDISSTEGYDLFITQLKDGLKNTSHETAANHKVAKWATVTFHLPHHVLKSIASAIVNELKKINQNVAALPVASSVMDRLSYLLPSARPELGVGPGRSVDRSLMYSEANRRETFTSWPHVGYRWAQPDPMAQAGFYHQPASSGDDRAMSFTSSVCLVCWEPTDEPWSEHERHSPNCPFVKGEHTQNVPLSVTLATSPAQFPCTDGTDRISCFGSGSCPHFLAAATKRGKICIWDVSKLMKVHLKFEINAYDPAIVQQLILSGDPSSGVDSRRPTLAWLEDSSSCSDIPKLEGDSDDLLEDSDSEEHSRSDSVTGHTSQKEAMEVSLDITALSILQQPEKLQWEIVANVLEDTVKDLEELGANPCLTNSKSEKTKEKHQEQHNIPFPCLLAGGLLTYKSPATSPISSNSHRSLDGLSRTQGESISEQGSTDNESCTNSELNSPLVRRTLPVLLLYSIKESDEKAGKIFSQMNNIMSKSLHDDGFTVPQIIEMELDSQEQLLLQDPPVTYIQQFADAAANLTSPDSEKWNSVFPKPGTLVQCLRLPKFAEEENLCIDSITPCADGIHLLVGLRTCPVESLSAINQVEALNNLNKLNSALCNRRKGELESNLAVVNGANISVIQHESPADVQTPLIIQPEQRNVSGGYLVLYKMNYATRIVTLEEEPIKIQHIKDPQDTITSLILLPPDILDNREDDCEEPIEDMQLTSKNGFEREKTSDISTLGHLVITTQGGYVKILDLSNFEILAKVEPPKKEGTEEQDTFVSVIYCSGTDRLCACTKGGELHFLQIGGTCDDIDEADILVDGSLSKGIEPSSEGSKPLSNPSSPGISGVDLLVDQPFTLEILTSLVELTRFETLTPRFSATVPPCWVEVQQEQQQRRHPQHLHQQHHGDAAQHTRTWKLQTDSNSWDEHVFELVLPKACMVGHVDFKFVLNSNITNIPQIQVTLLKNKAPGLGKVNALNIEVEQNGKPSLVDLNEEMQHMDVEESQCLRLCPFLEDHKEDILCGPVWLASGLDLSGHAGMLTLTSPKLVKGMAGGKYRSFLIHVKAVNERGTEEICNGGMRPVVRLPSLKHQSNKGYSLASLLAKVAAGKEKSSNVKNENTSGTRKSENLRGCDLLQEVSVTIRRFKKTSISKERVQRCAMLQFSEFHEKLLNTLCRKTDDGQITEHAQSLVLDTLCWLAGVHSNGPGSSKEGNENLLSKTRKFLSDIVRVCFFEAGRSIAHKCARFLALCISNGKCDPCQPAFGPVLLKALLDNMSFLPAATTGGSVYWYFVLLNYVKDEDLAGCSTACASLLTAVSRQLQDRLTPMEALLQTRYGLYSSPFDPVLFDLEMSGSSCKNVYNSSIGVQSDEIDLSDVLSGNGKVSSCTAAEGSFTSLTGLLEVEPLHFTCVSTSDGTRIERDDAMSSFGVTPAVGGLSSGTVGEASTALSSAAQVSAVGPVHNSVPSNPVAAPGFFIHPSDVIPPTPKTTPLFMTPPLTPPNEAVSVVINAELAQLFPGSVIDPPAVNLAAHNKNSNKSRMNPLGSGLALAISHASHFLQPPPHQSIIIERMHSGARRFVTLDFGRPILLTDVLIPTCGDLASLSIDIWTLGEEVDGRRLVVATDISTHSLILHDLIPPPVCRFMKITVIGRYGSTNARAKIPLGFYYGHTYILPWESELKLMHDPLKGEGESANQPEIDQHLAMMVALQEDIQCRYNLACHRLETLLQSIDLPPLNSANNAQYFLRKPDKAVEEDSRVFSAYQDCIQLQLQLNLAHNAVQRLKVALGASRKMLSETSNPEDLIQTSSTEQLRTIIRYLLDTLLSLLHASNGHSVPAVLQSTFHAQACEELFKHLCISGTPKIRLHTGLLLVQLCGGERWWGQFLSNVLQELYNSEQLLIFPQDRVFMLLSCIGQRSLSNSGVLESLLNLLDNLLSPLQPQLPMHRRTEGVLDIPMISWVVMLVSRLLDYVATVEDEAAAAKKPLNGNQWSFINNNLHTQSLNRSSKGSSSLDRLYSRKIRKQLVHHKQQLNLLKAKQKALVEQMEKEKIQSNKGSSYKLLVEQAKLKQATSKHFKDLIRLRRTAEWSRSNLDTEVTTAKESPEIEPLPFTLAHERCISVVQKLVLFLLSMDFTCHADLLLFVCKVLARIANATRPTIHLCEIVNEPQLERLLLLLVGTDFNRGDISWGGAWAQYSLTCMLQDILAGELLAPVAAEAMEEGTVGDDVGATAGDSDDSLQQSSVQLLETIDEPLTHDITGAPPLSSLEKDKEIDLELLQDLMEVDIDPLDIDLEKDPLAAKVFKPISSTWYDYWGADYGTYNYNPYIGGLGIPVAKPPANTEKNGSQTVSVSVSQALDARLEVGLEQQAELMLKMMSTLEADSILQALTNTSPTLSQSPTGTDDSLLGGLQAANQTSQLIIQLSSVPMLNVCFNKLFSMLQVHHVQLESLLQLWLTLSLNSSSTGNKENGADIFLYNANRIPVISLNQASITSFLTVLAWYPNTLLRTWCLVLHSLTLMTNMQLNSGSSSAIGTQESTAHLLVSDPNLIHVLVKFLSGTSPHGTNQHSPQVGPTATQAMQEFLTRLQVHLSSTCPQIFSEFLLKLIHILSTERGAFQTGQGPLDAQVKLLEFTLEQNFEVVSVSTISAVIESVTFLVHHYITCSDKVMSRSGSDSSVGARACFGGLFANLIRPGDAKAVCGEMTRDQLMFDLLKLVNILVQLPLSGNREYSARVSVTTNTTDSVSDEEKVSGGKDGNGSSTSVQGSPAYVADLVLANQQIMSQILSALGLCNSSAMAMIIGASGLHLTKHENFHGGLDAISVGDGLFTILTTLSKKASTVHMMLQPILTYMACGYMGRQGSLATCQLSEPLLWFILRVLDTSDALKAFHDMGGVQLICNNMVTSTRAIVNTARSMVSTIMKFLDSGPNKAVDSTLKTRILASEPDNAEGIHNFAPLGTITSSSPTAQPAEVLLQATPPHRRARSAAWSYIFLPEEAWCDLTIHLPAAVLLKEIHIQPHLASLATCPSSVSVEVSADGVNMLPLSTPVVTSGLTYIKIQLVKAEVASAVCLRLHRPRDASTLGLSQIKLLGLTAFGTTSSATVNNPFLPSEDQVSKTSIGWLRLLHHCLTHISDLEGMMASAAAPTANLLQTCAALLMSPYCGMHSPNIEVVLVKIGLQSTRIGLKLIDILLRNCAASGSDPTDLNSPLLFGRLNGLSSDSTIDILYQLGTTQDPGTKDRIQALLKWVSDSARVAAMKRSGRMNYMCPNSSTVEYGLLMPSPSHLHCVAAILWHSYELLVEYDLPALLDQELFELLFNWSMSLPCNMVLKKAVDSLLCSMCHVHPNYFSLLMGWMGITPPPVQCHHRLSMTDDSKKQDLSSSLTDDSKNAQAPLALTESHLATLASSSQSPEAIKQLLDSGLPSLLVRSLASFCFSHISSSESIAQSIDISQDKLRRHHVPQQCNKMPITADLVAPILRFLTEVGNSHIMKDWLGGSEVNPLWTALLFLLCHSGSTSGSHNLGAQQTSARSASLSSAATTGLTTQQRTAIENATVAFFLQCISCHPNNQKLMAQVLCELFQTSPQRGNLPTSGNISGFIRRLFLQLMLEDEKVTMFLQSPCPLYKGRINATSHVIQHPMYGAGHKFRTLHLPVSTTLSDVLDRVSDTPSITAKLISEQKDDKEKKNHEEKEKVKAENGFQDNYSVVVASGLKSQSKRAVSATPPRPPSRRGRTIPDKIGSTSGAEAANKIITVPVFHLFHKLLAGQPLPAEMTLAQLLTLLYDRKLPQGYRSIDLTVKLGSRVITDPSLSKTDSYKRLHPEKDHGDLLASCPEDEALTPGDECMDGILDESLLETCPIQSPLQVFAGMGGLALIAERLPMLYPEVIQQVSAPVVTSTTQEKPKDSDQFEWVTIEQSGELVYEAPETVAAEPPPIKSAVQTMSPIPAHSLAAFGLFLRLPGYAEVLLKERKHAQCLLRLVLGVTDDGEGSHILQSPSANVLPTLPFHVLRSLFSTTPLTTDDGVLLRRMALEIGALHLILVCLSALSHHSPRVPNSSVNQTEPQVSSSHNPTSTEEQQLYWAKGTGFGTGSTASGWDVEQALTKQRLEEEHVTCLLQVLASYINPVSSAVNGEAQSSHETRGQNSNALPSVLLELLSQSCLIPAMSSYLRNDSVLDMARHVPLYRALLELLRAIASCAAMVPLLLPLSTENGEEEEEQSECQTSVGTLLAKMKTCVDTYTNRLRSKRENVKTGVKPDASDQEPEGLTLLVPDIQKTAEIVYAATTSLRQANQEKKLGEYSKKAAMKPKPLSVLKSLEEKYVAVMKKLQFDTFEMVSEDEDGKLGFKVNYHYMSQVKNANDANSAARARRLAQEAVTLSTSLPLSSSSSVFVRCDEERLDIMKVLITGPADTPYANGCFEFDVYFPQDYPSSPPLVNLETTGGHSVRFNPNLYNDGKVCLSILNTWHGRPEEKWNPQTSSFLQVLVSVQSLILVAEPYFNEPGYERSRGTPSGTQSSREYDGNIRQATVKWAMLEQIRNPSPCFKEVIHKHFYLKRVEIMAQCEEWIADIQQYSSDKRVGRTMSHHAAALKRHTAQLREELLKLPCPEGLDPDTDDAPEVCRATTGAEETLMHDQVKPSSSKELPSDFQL

Target: 3xFLAG-BIRC6 double mutant (BIRmut/ΔHelix) (human) (UniProt Q9NR09)
Experiment: FRET or BRET

B1: BODIPY-labeled Smac-Cys (natural protein)
chain: AVPIAQKSEPHSLSSEALMRRAVSLVTDSTSTFLSQTTYALIEAITEYTKAVYTLTSLYRQYTSLLGKMNSEEEDEVWQVIIGARAEMTSKHQEYLKLETTWMTAVGLSEMAAEAAYQTGADQASITARNHIQLVKLQVEEVHQLSRKAETKLAEAQIEELRQKTQEEGEERAESEQEAYLREDC
modifications: BODIPY FL Maleimide on the introduced cysteine (degree of labeling 0.48)
binding: no binding (tested: 4 µM)
